In article PMC4357710, “TEFM is a potent stimulator of mitochondrial transcription elongation in vitro” (Nucleic Acids Research, 2015):
Weaker means in comparison with the reference protein, sequence or condition of that experiment. Tags and fusion partners may be left off the protein sequences shown.

Target: T1, TEFM (Homo sapiens) (UniProt Q96QE5)
T1 sequence (looked up): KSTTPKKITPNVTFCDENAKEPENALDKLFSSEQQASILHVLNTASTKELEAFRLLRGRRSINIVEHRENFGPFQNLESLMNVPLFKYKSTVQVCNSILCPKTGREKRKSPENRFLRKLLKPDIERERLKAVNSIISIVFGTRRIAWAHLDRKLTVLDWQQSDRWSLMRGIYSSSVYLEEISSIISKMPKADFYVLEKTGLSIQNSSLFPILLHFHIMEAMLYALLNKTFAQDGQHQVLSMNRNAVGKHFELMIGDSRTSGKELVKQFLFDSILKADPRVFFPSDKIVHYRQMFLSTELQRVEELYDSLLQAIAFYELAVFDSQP
Test: MST
Conditions: TEFM titrated to 13.7 uM, very low affinity, binding only above 2000 nM, Kd not calculable; MST: 25 mM Tris-HCl pH 8.0, 100 mM NaCl, 10 mM MgCl2, 10% glycerol, 1 mM DTT, 500 uM ATP, 0.05% Tween-20, 15 nM template, 22 C; recombinant protein; residues 36-360; protein details: N-terminal His6 removed by TEV; label: 5' Alexa488 on DNA; DNA:RNA hybrid

## GGGAATGCATGGCGCGGC / UUUUGCCGCGCC [elongation-like DNA:RNA template (18-mer DNA / 12-mer RNA)]
  binding result: binds more weakly
